Laboratory results as given in US20120238554A1, “SALTS OF POTASSIUM ATP CHANNEL OPENERS AND USES THEREOF” (priority 2007, published 2012).
At least one compound was matched to its structure with a doubt left. Some entries share one result that the patent states for a list of compounds.

What was measured:
[1] = Polymorph screening crystallizations and characterization of forms (XRPD, DSC, TGA); format: physicochemical
Description: DSC analysis were conducted with a Mettler 822 DSC, by measuring the amount of energy released by a sample, as the sample was heated from 30° C. to between 300-500° C. at a rate of 10° C./min. Typical applications of DSC analysis include determination of melting point temperature and the heat of melting; measurement of the glass transition temperature; curing and crystallization studies; and identification of phase transformations.
TGA measurements were conducted with a Mettler 851 SDTA/TGA, by measuring weight loss as a function of increasing temperature, as the samples were heated from 30° C. to 230° C. at a rate of 10° C./min. The TCA can be used to analyze desorption and decomposition behavior, characterize oxidation behavior, set burnout or conditioning parameters (temperature/ramp rate/time), and determine chemical composition.
XRPD samples were analyzed with a Shimadzu XRD-6000 system, using a Cu Kα, 40 kV, 40 mA X-ray tube. The divergence and scatter slits were 1.00 deg, and the receiving slit was 0.30 mm. Samples were continuously scanned at a range of 3.0-45.0 deg, with a step size of 0.04 deg., at a scan rate of 2 deg/min.
After hot filtration the vials were placed in a refrigerator (4° C.) for 16 hours. […] All solids were dried in vacuo at ambient temperature and 30 in. Hg.
After hot filtration the vials were then slowly cooled to room temperature at the rate of 20° C./h and stirred at room temperature for 1-2 hours. All solids were dried in vacuo at ambient temperature and 30 in. Hg.
Solvents for crystallizations were chosen based on the solubility screen summarized below.

[2] = Stability/hydrolysis of diazoxide salts in aqueous solution (UV spectroscopy); format: physicochemical; conditions: for pH at which the salt is stabilized in aqueous solution: UV spectroscopy; for pH resulting in hydrolysis of the salt to diazoxide free base: adjusted from pH greater than 9.0, UV absorption

Compound	DSC [1]	pH at which the salt is stabilized in aqueous solution [2]	pH resulting in hydrolysis of the salt to diazoxide free base [2]
CC1=NS(=O)(=O)c2cc(Cl)ccc2[N-]1.[K+] [Diazoxide potassium Form C]	187, 360 °C		
CC1=NS(=O)(=O)c2cc(Cl)ccc2[N-]1.[K+] [Diazoxide potassium Form D]	130, 191, 352 °C		
CC1=NS(=O)(=O)c2cc(Cl)ccc2[N-]1.[K+] [Diazoxide potassium Form F]	191, 363 °C		
CC1=NS(=O)(=O)c2cc(Cl)ccc2[N-]1.[K+] [potassium salt of diazoxide]		above 9.0	less than 6.2
CC1=NS(=O)(=O)c2cc(Cl)ccc2[N-]1.[Na+] [sodium salt of diazoxide]		above 9.0	less than 6.2
